Some entries share one result that the patent states for a list of compounds.
Tested on: polyclonal antibody to 1-Substituted 5-FU KLH Immunogen (example 5)
Experiment: Indirect competitive microtiter plate immunoassay (ELISA), antibodies to 5-FU derivative 4 conjugate; plate coating 3-substituted BSA conjugate (10:1, example 7a)
Assay type: binding, BALB/c mice
Conditions: relative to 5-FU (ratio of IC50 for 5-FU to IC50 of analyte), 1-Substituted KLH Immunogen, plate coating 3-Substituted BSA Conjugate (10:1 ratio)
Procedure: Ten Female BALB/c mice were immunized i.p. with 100 μg/mouse of 5-FU-KLH prepared in example 5 or with 5-FU-BTG prepared in example 6a, emulsified in Complete Freund's Adjuvant. Mice were boosted once four weeks after the initial injection with 100 μg/mouse of the same immunogens emulsified in Incomplete Freund's Adjuvant. Ten days after the boost test bleeds from each mouse were obtained by orbital bleed. The anti-serum from these test bleeds contained 5-FU antibodies evaluated in Examples 12a, 13, and 14. For monoclonal antibodies ten Female BALB/c mice were immunized i.p. with 100 μg/mouse of 3-substituted 5-FU-KLH prepared in example 6b, emulsified in Complete Freund's Adjuvant. Mice were boosted once four weeks after the initial injection with 100 μg/mouse of the same immunogens emulsified in Incomplete Freund's Adjuvant. Ten days after the boost test bleeds from each mouse were obtained by orbital bleed and these were screened as in examples 12a and 15. To produce monoclonal antibodies starting four days before the fusion (day 0), the mice were injected i.p. with 400 μg (day 3), 200 μg (day 2) and 200 μg (day 1) 3-substituted 5-FU KLH immunogen in PBS on three successive days. Spleen cells were isolated from the selected mice and fused with 2×10^7 SP2/0 cells with 50% polyethylene glycol 1500 according to the method of Coligan, J. E. et al., eds., Current Protocols in Immunology, 2.5.1-2.5.8, (1992), Wiley & Sons, NY. The fused cells were plated on 10 96-well plates in DMEM/F12 supplemented with 20% FetalClone I, 2% L-glutamine (100 mM) and 2% 50×HAT. Two weeks later, the hybridoma supernatant was assayed for the presence of anti-5-FU by ELISA (example 12b). Positive wells were expanded and again screened by the same method. The positive clones were confirmed for 5-FU binding by a competitive ELISA (examples 12a and 15). Clones positive by ELISA were subcloned once or twice by limiting dilution according to the method disclosed in Coligan, J. E. et al., eds., Current Protocols in Immunology, 2.5.8-2.5.17, (1992), Wiley & Sons, NY. […]

Structure (SMILES): Cc1c[nH]c(=O)[nH]c1=O [Thymine, thymine]
- Cross-Reactivity (listed as thymine): less than 7%

Structure (SMILES): O=c1cc[nH]c(=O)[nH]1 [Uracil, uracil]
- Cross-Reactivity (listed as uracil): less than 7%

Structure (SMILES): Nc1cc[nH]c(=O)n1 [Cytosine, cytosine]
- Cross-Reactivity (listed as cytosine): less than 7%

From patent publication US9551724B2, “5-fluoro-uracil immunoassay” (SALADAX BIOMEDICAL, INC., priority 2005, dated 2017)
